Laboratory results: PubChem BioAssay AID1671195 (Yale University, 2021)

- Purpose: 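Regulators of LDL receptor activity judged by labelled LDL uptake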 (primary screen)
- Cell system: human Huh7 hepatoma cells
- Knock-down reagent: siRNA pool against human genes, 18 nM
- Duration: about 2 to 2.5 days of knockdown, then 8 h LDL uptake
- Treatment: DiI-labelled LDL at 30 µg/ml for 8 h, in lipoprotein-deficient serum medium
- Detection: 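Per-cell DiI-LDL intensity by automated imaging; well means scaled to the plate median and given as a robust z-score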
- Direction: robust z-score: higher = more LDL uptake after knockdown
- Hit rule: 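Active when two or more replicates show a robust z-score above 2 or below -2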
The whole screen tested about 22,000 reagents; this is an unselected part. About 1,510 of all reagents (6.9%) were called active. 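Active includes knockdowns raising or lowering LDL uptake; positive z-scores mean more uptake, negative mean less.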 A number with no mark means an inactive call.

robust z-score, replicate 1	robust z-score, replicate 2	robust z-score, replicate 3	gene symbol
-1.48	-1.32	-2.02	DDT (D-dopachrome tautomerase)
-0.634	-1.64	-1.73	RBM12 (RNA binding motif protein 12)
0.426	-0.756	-0.196	RFPL1 (ret finger protein like 1)
-0.0141	0.661	0.274	CUL9 (cullin 9)
0.605	1.46	0.866	SIKE1 (suppressor of IKBKE 1)
-1.28	0.844	-0.391	UBA6 (ubiquitin like modifier activating enzyme 6)
0.512	0.172	0.498	LOC390615 (retired record)
1.89	-1.26	1.16	LRRC71 (leucine rich repeat containing 71)
-0.106	-0.321	-0.282	INSL6 (insulin like 6)
-0.588	-0.214	-0.532	C3orf22 (chromosome 3 open reading frame 22)
-0.375	-0.577	-0.0643	UGT2A1 (UDP glucuronosyltransferase family 2 member A1 complex locus)
-1.93	-0.157	-0.098	PAFAH1B3
-0.7	-0.673	-0.847	NRROS (negative regulator of reactive oxygen species)
-0.925	-0.975	-0.9	LINC01226 (long independently transcribed non-coding RNA 1226)
0.72	0.266	0.238	ZC3H12B (zinc finger CCCH-type containing 12B)
-0.908	0.536	-0.528	SLC38A9
-1.74	-1.06	-1.91	CTBP2 (C-terminal binding protein 2)
0.119	0.5	0.413	TTC1 (tetratricopeptide repeat domain 1)
0.16	1.05	-0.168	MYO15A (myosin XVA)
1.12	0.95	0.837	CFAP299 (cilia and flagella associated protein 299)
-0.508	-0.33	0.0544	OFD1P16Y (OFD1 pseudogene 16 Y-linked)
-1.64	-1.87	-1.51	C6orf58 (chromosome 6 open reading frame 58)
0.865	0.657	0.601	LOC401923 (retired record)
0.0897	-0.247	0.0115	CLEC4D (C-type lectin domain family 4 member D)
-0.574	-1.11	-1.13	LOC391509 (retired record)
1.46	0.617	1.91	SAMD8 (sterile alpha motif domain containing 8)
2.97 (active)	3.29	2.48	PLEKHM2 (pleckstrin homology and RUN domain containing M2)
-1	-0.201	-0.878	AKAP4 (A-kinase anchoring protein 4)
0.0942	3.04	1.88	WNT8A (Wnt family member 8A)
0.258	0.214	0.352	LINC00523 (long independently transcribed non-coding RNA 523)
-1	-1.53	0.38	PIEZO1
-0.991	-0.932	-1.69	BMP8B (bone morphogenetic protein 8b)
0.687	-0.405	-0.619	CDC50A (cell division cycle 50 P4-ATPase accessory subunit A)
0.549	3.58	1.05	TOGARAM1 (TOG array regulator of axonemal microtubules 1)
-0.398	-1.15	-0.192	RPL10AP3 (ribosomal protein L10a pseudogene 3)
0.36	-0.103	0.185	HDGF (heparin binding growth factor)
1.22	1.04	0.357	KCTD6 (potassium channel tetramerization domain containing 6)

Records above marked active (1):
robust z-score, replicate 1	robust z-score, replicate 2	robust z-score, replicate 3	gene symbol
2.97 (active)	3.29	2.48	PLEKHM2 (pleckstrin homology and RUN domain containing M2)

More entries follow:
robust z-score, replicate 1	robust z-score, replicate 2	robust z-score, replicate 3	gene symbol
-0.632	-0.272	-0.667	LOC440868 (retired record)
-0.593	-0.418	-0.681	SLC25A2
0.0217	0.0623	-0.447	LOC439955 (retired record)
-0.884	-0.877	-0.549	PRIM1 (DNA primase subunit 1)
0.462	-0.428	0.117	NDUFA10 (NADH:ubiquinone oxidoreductase subunit A10)
1.49	0.404	0.409	CCND1 (cyclin D1)
-0.423	0.61	-1.24	ANAPC10 (anaphase promoting complex subunit 10)
0.558	-1.06	1.42	TPM1 (tropomyosin 1)
1.27	1.22	1.45	ZNF324 (zinc finger protein 324)
-0.271	-0.558	-0.484	LOC440255 (retired record)
0.208	-0.71	-1.16	POPDC1 (popeye domain cAMP effector 1)
0.172	-0.87	-0.0418	INHBC (inhibin subunit beta C)
1.22	0.583	0.226	ATP5MC1 (ATP synthase membrane subunit c locus 1)
1.1	0.577	2.99	KRTAP5-1 (keratin associated protein 5-1)
-0.978	-1.6	-1.7	ANAPC11 (anaphase promoting complex subunit 11)
-1.12	-0.708	-0.747	LEMD1 (LEM domain containing 1)
0.0369	0.0211	0.0777	ZNF561-AS1 (ZNF561 antisense RNA 1)
-1.03	-1.24	-1.51	EXOSC4 (exosome component 4)
1.06	-0.0553	0.149	APAF1 (apoptotic peptidase activating factor 1)
-1.1	-0.422	-1.11	DYDC2 (DPY30 domain containing 2)
-0.977	-0.96	-1.18	LOC441449 (retired record)
-1.24	-2.4	-1.59	TEX46 (testis expressed 46)
1.06	1.98	1.18	GCAT (glycine C-acetyltransferase)
-0.297	-1.21	-0.941	LOC441364 (retired record)
3.09 (active)	2.72	2.9	ZNF22 (zinc finger protein 22)
1.79	0.159	1.84	ELOA2 (elongin A2)
0.477	0.856	-1.33	DEFA6 (defensin alpha 6)
1.02	0.949	1.79	HYKK (hydroxylysine kinase)
-0.52	0.338	0.198	PTPRG (protein tyrosine phosphatase receptor type G)
0.103	-0.18	-0.137	TRIM55 (tripartite motif containing 55)
0.535	0.375	0.446	ADCK5 (aarF domain containing kinase 5)
0.0508	-0.0188	-0.315	GRPR (gastrin releasing peptide receptor)
1.56	0.422	0.347	LOC441399 (retired record)
-0.464	0.14	0.00165	BPIFB1 (BPI fold containing family B member 1)
-1.22	-0.899	-0.996	PHKA1P1 (phosphorylase kinase regulatory subunit alpha 1 pseudogene)
-0.0299	-0.911	-0.518	TPK1 (thiamin pyrophosphokinase 1)
0.594	0.642	0.642	UGT2B4 (UDP glucuronosyltransferase family 2 member B4)
-0.857	-1.77	5.44	WDR5B (WD repeat domain 5B)
-0.203	-0.128	-0.666	LOC440070 (retired record)
-0.57	-0.849	-0.662	ASIC4 (acid sensing ion channel subunit family member 4)
0.276	0.231	0.121	RPL37 (ribosomal protein L37)
-0.464	-0.748	-0.791	OR51F2 (olfactory receptor family 51 subfamily F member 2)
0.113	1.91	1.5	NDRG1 (N-myc downstream regulated 1)
-1.56	-1.93	-1.45	FBLN1 (fibulin 1)
0.0809	0.187	0.399	ARG1 (arginase 1)
-1.47	-0.859	-1.57	RBFOX2 (RNA binding fox-1 homolog 2)
1.68	1.88	1.34	LOC286441 (retired record)
-1	-1.26	-0.931	LOC440771 (retired record)
0.0486	0.196	0.0862	PTGR1 (prostaglandin reductase 1)
-1.73	1.18	1	APLNR (apelin receptor)
